From PubChem BioAssay AID1487 (National Center for Advancing Translational Sciences (NCATS), 2009)
Screen size: about 200,000 compounds; about 25 (0.01%) were called active. This list was built around the results that the source calls inconclusive (neither active nor inactive); the mix of calls is not that of the screen. The call rests on the fitted dose curve; in most records, active means well fitted inhibition curve with a large enough effect in the signal ratio, with a control signal flat (not every such curve was filed as active); inconclusive means small, poorly fitted or top-dose-only effect, or effect the other way, or a change in a side signal; inactive means flat fitted curve, though single readings scatter; the % refers to the signal ratio. Potencies of inconclusive entries are doubtful fits and often do not repeat.

Assay: qHTS Assay for Modulators of Lamin A Splicing
Conditions: HeLa LMNA splicing GFP/RFP minigene ratio, 48 h; ratio change, negative = inhibition: at 46.1 µM (top of the series) unless noted
In short: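 S3 HeLa stable clones carrying a lamin A-EGFP splicing minigene plus DsRed2 were seeded at 600 cells/well in Opti-MEM with 2% FBS, pin-dosed and incubated 48 h at 37°C. Acumen cytometry (488 nm) gave the GFP/RFP total-intensity ratio.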
On the % scale 0 is the no-effect control and ±100 the full control effect; potency means the concentration at half of the fitted maximal effect.

SMILES | ratio change, negative = inhibition | Potency
CC(C)CCOc1ccc(C(=O)N2CCCC2C(=O)O)cc1 (centres undefined) | inconclusive: 27% [at 46 µM] | –
COC(=O)c1c(NC(=O)CN2CCOCC2)sc2c1CCC(C)C2 (centres undefined) | inconclusive: -35.1% | –
CCCC(=O)c1ccc(N2CCN(C(=O)c3ccc(Br)cc3)CC2)c(F)c1 | inconclusive: -42% | –
Cc1cc(C)nc(/N=C(\N)Nc2ccc(S(=O)(=O)Nc3nccc(C)n3)cc2)n1 | inconclusive: -20% [at 46 µM] | –
CC(C(=O)O)C1CCC2C3CC=C4CC(O)CC[C@@]4(C)C3CC[C@]12C (some centres undefined) | inconclusive: -17.8% | –
O=C1NC2(CCC3(CC2)OCCO3)NN1c1ccc(Cl)cc1 | inactive: 9.15% [at 46 µM] | –
N#Cc1cnn(-c2nc3sc4c(c3c(=O)[nH]2)CCCC4)c1N | inactive: -0.729% | –
CCc1ccc(NC(=O)c2cc(S(=O)(=O)NC3CCCC3)ccc2F)cc1 | inconclusive: -20% [at 46 µM] | –
Cc1ccc(S(=O)(=O)N(CC(=O)Nc2ccccc2C(=O)O)c2cccc(Cl)c2C)cc1 | inconclusive: -10.3% | –
Cc1cccc(NC(=O)CN2C(=O)N/C(=C/c3cc(C)n(C)c3C)C2=O)c1 | inactive: -15.7% [at 9.22 µM] | –
CCC(Sc1nc2ccccc2c2nc(CCc3c(C)n[nH]c3C)nn12)C(=O)Nc1ccc(F)cc1 (centres undefined) | inactive: 11.7% [at 46 µM] | –
COc1ccc2c(C)cc(SC3CCOC3=O)nc2c1 (centres undefined) | inactive: -3.21% [at 46 µM] | –
Cc1[nH]c2c(ccc3ccccc32)c1C1C(CCN)C1(C)C (centres undefined) | inactive: 0.941% | –
O=C(Nc1ccccc1Oc1ccccc1)c1ccccc1F | inconclusive: 4.61% | –
CCNc1ncc2nc(CCc3ccccc3)c(=O)n(Cc3ccc(F)cc3)c2n1 | – | inconclusive: 11.2 µM [cytotoxic, partial curve]
Cc1cccc(OCC(=O)Nc2cccc(C(=O)NCC(C)C)c2)c1 | – | inconclusive: 35.5 µM [falling, single point]
Cc1[nH]c2ccc(C(=O)O)cc2c1C | inactive: 0.887% | –
N=C(N)c1ccc(N)cc1 | inconclusive: 1.03% | –
O=C(CNc1cc(S(=O)(=O)N2CCCC2)ccc1OCC(F)(F)F)Nc1cccc(C(F)(F)F)c1 | – | inconclusive: 8.91 µM [falling, partial curve]
O=C(COC(=O)C1CCC1)NCc1ccccc1Cl | inactive: 2.69% | –
CCCC(c1nnnn1C(C)(C)CC)N(Cc1ccco1)Cc1cc2ccc(OC)cc2[nH]c1=O (centres undefined) | inconclusive: -30.8% | –
Cc1ccccc1Cn1c(-c2cncs2)nc2ccccc21 | inconclusive: -21% | –
COc1ccc2cc(C3C(C#N)=C(N)OC(C)=C3C(C)=O)c(Cl)nc2c1 (centres undefined) | inconclusive: -4.41% [at 46 µM] | –
CC(C)CC(=O)NCC(c1ccc2c(c1)OCO2)N1CCN(c2ccccc2)CC1 (centres undefined) | inconclusive: -7.66% [at 46 µM] | –
CS(=O)(=O)NNC(=O)c1sccc1OCc1ncc(C(F)(F)F)cc1Cl | inconclusive: 26.2% [at 46 µM] | –
CCOC(=O)c1oc2ccccc2c1NC(=O)c1ccccc1OC | inconclusive: -16.5% | –
COc1ccc(C(=O)C2CCCN(Cc3cn[nH]c3-c3ccc(F)cc3)C2)cc1OC (centres undefined) | inconclusive: -21% [at 46 µM] | –

In the list so far, 8 contain fluorine:
SMILES | ratio change, negative = inhibition | Potency
CCCC(=O)c1ccc(N2CCN(C(=O)c3ccc(Br)cc3)CC2)c(F)c1 | inconclusive: -42% | –
CCc1ccc(NC(=O)c2cc(S(=O)(=O)NC3CCCC3)ccc2F)cc1 | inconclusive: -20% [at 46 µM] | –
CCC(Sc1nc2ccccc2c2nc(CCc3c(C)n[nH]c3C)nn12)C(=O)Nc1ccc(F)cc1 (centres undefined) | inactive: 11.7% [at 46 µM] | –
O=C(Nc1ccccc1Oc1ccccc1)c1ccccc1F | inconclusive: 4.61% | –
CCNc1ncc2nc(CCc3ccccc3)c(=O)n(Cc3ccc(F)cc3)c2n1 | – | inconclusive: 11.2 µM [cytotoxic, partial curve]
O=C(CNc1cc(S(=O)(=O)N2CCCC2)ccc1OCC(F)(F)F)Nc1cccc(C(F)(F)F)c1 | – | inconclusive: 8.91 µM [falling, partial curve]
CS(=O)(=O)NNC(=O)c1sccc1OCc1ncc(C(F)(F)F)cc1Cl | inconclusive: 26.2% [at 46 µM] | –
COc1ccc(C(=O)C2CCCN(Cc3cn[nH]c3-c3ccc(F)cc3)C2)cc1OC (centres undefined) | inconclusive: -21% [at 46 µM] | –

Looked up one by one from the list above, two records:
SMILES | ratio change, negative = inhibition | Potency
CCNc1ncc2nc(CCc3ccccc3)c(=O)n(Cc3ccc(F)cc3)c2n1 | – | inconclusive: 11.2 µM [cytotoxic, partial curve]
O=C1NC2(CCC3(CC2)OCCO3)NN1c1ccc(Cl)cc1 | inactive: 9.15% [at 46 µM] | –

(list continues)

SMILES | ratio change, negative = inhibition | Potency
C(=N\Nc1nc(Nc2ccccc2)nc(N2CCCCC2)n1)/c1ccco1 | inactive: 3.22% [at 46 µM] | –
CC(C)c1cc(N2CCC(=O)NC2=O)cc(C(=O)O)c1O | inactive: -6.18% | –
Cc1cc(NCCCn2ccnc2)n2ncc(-c3ccccc3)c2n1 | inconclusive: 3.23% | –
Cc1ccc(-n2ncc3c(N4CCCCCC4)ncnc32)cc1Cl | inconclusive: -8.78% [at 46 µM] | –
CCCCc1ccc(CC(=O)O)cc1 | inactive: 0.156% | –
CCOc1ccc(S(=O)(=O)NCc2ccc(C)cc2)c2cccnc12 | inconclusive: -7.19% | –
COc1c(N2C[C@@H]3CCCN[C@H]3C2)c(F)cc2c(=O)c(C(=O)O)cn(C3CC3)c12 | inconclusive: -24% | –
Cc1ccc(C(=O)N/N=C/c2nc3ccccc3n2C)cc1 | – | inconclusive: 11.2 µM [inhibitor, single point]
Cc1cnc(CNc2nc(-c3ccc(N(C)C)cc3)nc3ccccc23)cn1 | – | inconclusive: 35.5 µM [cytotoxic, single point]
O=C(NCc1ccc2c(c1)OCO2)c1sccc1Br | inconclusive: -9.65% [at 46 µM] | –
CCCCCCN1Cc2ccccc2C1 | inactive: 0.479% | –
Cc1ccc2cc3c(N)c4c(C)ccc(C)c4nc3nc2c1 | – | inconclusive: 11.2 µM [inhibitor, partial curve]
Cc1ccc2onc(CC(=O)N3CCN(c4cccc(Cl)c4)CC3)c2c1 | inconclusive: -22.3% [at 46 µM] | –
Cc1cc(F)ccc1NC(=O)Cn1cc(S(=O)(=O)NC(C)C)c(S(=O)(=O)NC(C)C)c1 | inconclusive: 5.68% [at 46 µM] | –
C=C(C)[C@@H]1CC=C(CN2CCC(N3CCC(C(=O)N4CCCC4)CC3)CC2)CC1 | inconclusive: -13.8% [at 46 µM] | –
Cc1ccc(S(=O)(=O)N(CC(=O)N2CCc3ccccc3C2)c2cccc(Cl)c2)cc1 | inconclusive: 10.7% | –
CCOc1ccc(C(=O)Nc2nnc(SCc3cc(=O)n4ccccc4n3)s2)cc1 | inconclusive: 7.45% [at 46 µM] | –
O=C(O)CCS(=O)(=O)c1ccccc1Cl | inactive: -3.91% [at 46 µM] | –
O=C(CSc1ncccc1C(=O)Oc1ccccc1Cl)Nc1ccc(C(F)(F)F)cc1Cl | inactive: 1.93% [at 46 µM] | –
COc1ccc(-n2cc(-c3ccccc3)[nH]c2=S)cc1 | inactive: -7.94% | –
Cc1ccc(CN(C(=O)COc2ccccc2[N+](=O)[O-])c2ccccn2)o1 | inactive: -0.555% [at 46 µM] | –
CCN1C(=O)c2cccc3c(S(=O)(=O)Nc4ncccc4C)ccc1c23 | inactive: -16.2% | –
COc1cccc2cc(-c3nc(-c4ccc(Cl)cc4)cs3)c(=O)oc12 | inactive: 9.71% [at 46 µM] | –
COc1ccc(-c2c(C)c3ccc(O)c(CN4CCOCC4)c3oc2=O)cc1OC | inconclusive: -21.9% [at 46 µM] | –
CCN(CC(O)Cn1c2ccccc2c2ccccc21)S(=O)(=O)c1ccc(C)cc1 (centres undefined) | inconclusive: -35.7% | –
CCCCOC(=S)NC(=O)c1sc2ccccc2c1Cl | inconclusive: 17.2% | –
CC(C)c1[nH]nc2c1C(C1C=CCCC1)C(C#N)=C(N)O2 (centres undefined) | – | inconclusive: 35.5 µM [rising, single point]
